# Data: publication PMC7862700
# By UniProt entry, the sequences of proteins in these tests, tags left out. Where a name states a change or a piece, a line headed by the entry shows the natural chain unless it says otherwise.
# UniProt Q00613: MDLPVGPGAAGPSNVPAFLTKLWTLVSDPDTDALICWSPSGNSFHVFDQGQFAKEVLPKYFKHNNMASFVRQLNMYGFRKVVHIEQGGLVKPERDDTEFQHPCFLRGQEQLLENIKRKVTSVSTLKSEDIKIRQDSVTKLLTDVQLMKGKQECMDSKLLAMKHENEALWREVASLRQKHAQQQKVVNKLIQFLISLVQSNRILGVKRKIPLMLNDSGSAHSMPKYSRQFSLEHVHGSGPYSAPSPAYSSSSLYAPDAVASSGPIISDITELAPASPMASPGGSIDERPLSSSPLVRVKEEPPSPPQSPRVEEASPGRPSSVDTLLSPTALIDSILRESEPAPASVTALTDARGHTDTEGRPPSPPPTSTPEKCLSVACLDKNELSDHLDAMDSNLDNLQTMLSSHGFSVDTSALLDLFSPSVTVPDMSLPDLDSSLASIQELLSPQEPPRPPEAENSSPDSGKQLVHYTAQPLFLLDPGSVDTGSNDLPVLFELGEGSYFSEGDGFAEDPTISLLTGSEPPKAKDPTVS
# The entries are a selection whose mix differs from that of the whole data set. For part of these data: At the low end of the ranking, values are background and their order means little. This is one part of the list. For part of these data: The exact form of the protein is not confirmed.
# Key:
# HSF1 = HSF1 (UniProt Q00613); experiment: DAPPL (digital affinity profiling via proximity ligation, sequencing); conditions: 10 mM Tris-HCl pH 7.5, 50 mM NaCl, 1 mM DTT, 4% glycerol, room temperature, 30 min; GST-TFs on glutathione beads, 16-mer random dsDNA library, 0.1% …; high values mean tight binding; double strand, one strand shown; scale: fold enrichment (6-mer frequency, TF over GST control)
# ELF2 = target: T1, ELF2 (UniProt Q15723); experiment: as above; conditions: 10 mM Tris-HCl pH 7.5, 50 mM NaCl, 1 mM DTT, 4% glycerol, room temperature, 30 min; GST-TFs on glutathione beads, 16-mer random dsDNA library, 0.1% …; high values mean tight binding; double strand, one strand shown; scale: fold enrichment (6-mer frequency, TF over GST control)
# T1 sequence: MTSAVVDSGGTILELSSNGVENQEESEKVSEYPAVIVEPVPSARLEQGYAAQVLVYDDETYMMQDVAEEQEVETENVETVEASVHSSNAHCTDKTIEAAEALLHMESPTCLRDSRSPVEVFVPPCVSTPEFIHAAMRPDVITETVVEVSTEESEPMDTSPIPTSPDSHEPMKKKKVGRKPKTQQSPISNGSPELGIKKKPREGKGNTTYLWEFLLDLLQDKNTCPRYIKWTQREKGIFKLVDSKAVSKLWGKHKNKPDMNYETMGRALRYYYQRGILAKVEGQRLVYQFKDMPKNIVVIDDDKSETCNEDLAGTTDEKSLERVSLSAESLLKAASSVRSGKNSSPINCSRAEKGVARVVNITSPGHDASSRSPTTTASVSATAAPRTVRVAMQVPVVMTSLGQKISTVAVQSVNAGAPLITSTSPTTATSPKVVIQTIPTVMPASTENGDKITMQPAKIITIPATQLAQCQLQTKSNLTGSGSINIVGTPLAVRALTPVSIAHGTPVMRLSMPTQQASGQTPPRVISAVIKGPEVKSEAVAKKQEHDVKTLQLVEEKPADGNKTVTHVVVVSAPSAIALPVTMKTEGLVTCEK
Sequence,binding signal (HSF1),binding signal (ELF2)
GGGAGT,0.209,0.235
GCAAGG,0.657,0.794
GTGGAG,0.393,0.411
CCCGGG,0.66,0.772
ACCGTA,0.785,0.831
CGTAGT,0.673,0.793
GCCCGT,0.562,0.631
ACAACG,0.743,0.925
GGTGTC,0.539,0.752
GGGATA,0.827,0.764
GCTGGG,0.672,0.74
ATTGGA,0.954,0.882
CAGTAC,0.713,0.827
AGCAGT,0.623,0.712
GGATAG,0.702,0.731
GCCGTG,0.232,0.239
CGGAGC,0.347,0.371
CGCATT,0.792,0.837
GGACAC,0.535,0.765
GTTGTG,0.711,0.88
GACAAT,0.834,0.902
AGCGCG,0.747,0.799
AGGGCA,0.687,0.8

Sequence,binding signal (HSF1),binding signal (ELF2)
GTCAGG,0.433,0.548
GGCAAC,0.691,0.897
GGTGGA,0.602,0.58
AACAGT,0.624,0.679
GAGTGA,0.374,0.377
GGTGTA,0.689,0.817
TCGGGG,0.39,0.377
GTAGTC,0.547,0.696
AGAGAG,0.626,0.489
GACACA,0.663,0.877
CGTGTG,0.333,0.433
AGTCAT,0.508,0.593
CGTTAG,0.75,0.778
TCGTGT,0.749,0.718
AGACAT,0.748,0.804
GGGGGT,0.426,0.493
GAACGC,0.73,0.733
GCATGG,0.714,0.823
GGGCCG,0.461,0.58
CCGTGA,0.187,0.193
GGGGAA,0.657,0.718
GGTTGG,0.568,0.733
AGGCGG,0.193,0.304

# Single records, from the list above. Values in the order: binding signal (HSF1) | binding signal (ELF2)
# GAACGC is listed as 0.73 | 0.733
# GGTGTA is listed as 0.689 | 0.817
# GTAGTC is listed as 0.547 | 0.696
# CGTGTG is listed as 0.333 | 0.433

# (cont.)

Sequence,binding signal (HSF1),binding signal (ELF2)
CGTCGG,0.39,0.41
CCAGTT,0.603,0.615
TGGGTC,0.519,0.624
AGACGC,0.637,0.683
AGGCGC,0.511,0.555
GTACGG,0.651,0.878
GCGGTA,0.598,0.762
GACGTC,0.619,0.841
ACGGGT,0.719,0.824
CAATCG,0.966,0.835
CATCGG,0.641,0.633
GACAAA,0.884,0.947
GTTGGG,0.524,0.659
GTCGGT,0.218,0.265
AGCACC,0.816,0.849
TTGGAC,0.808,0.932
TCGGTA,0.591,0.559
AAGACC,0.863,0.858
GAGATC,0.553,0.441
AGGGTC,0.749,0.811
GGTCCG,0.584,0.764
TAGAGC,0.902,0.756
GTAAGA,0.885,0.773

Sequence,binding signal (HSF1),binding signal (ELF2)
AGTCGA,0.45,0.391
TCGGCA,0.624,0.672
GAGTTA,0.625,0.596
ACCAGC,0.831,0.789
GGGAGA,0.359,0.324
GTGATA,0.647,0.664
CGAGAC,0.679,0.515
CGGGAT,0.698,0.684
GTCGGG,0.19,0.225
GGTAGC,0.623,0.817
GGAGTA,0.32,0.357
AGGGCC,0.771,0.835
GATTGG,0.824,0.815
GACGCA,0.418,0.524
GGGAGG,0.256,0.314
GAGCAG,0.511,0.591
TTCGTG,1.1,0.872
CCCAGT,0.589,0.645
AGTGAA,0.817,0.928
GCGAGA,0.731,0.47
ATGTCG,0.525,0.616
GGGTTA,0.798,0.819
AGTCCG,0.419,0.625

Sequence,binding signal (HSF1),binding signal (ELF2)
TCGTGG,0.706,0.687
CGAGTC,0.481,0.497
GCGTGG,0.463,0.525
CAGTGT,0.584,0.653
GACTAG,0.991,0.721
GACCAT,0.765,0.81
GGCAAG,0.589,0.677
CCCAGG,0.621,0.752
GAGCGA,0.617,0.606
AGGCCT,0.898,0.862
GTCGTC,0.583,0.728
AGGGTA,0.848,0.835
GGAGGA,0.231,0.26
GGCAGG,0.473,0.606
TATCGG,0.905,0.832
AGTGAG,0.209,0.258
GTCGCT,0.602,0.759
TGTGGG,0.719,0.781
TAGACC,0.911,0.83
GGCGCG,0.536,0.649
GCTTGA,0.811,0.862
AAGGAC,0.765,0.839
